Values of other authors in US20080014228A1, “Solid form” (priority 2006, published 2008).

Q: For `CC(=O)Nc1ccc(O)cc1` [acetaminophen], which solubility in water is on record?
A: The solubility in water was “sparingly soluble (sparingly soluble in water (1 g in 30 to 100 g of water))”.
